## Percent effect of library compounds

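Assay of Toxoplasma gondii numbers, read through their beta-galactosidase reporter with a colour substrate. Compounds at 10 µM. The record gives no direction; the compounds picked for IC50 retests had high values, so higher reads as fewer parasites. Of about 67,000 compounds tested this way, about 260 (0.38%) reached 50% or more in at least one test.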

The filed quantity is “Percent Effect” (%).
The record does not define 0% and 100%; most values in the screen are far below 50% and negative numbers occur (in some assays of this library far below -100).
This is an unselected part of the compounds tested.

Result for Cc1nnc(CN(C)CCCOc2cccc(Cl)c2)o1 was 9.124%.
Result for O=C(Nc1ccc(Cl)cn1)C1CCN(CCc2ccccn2)CC1 was -2.535%.
Result for Cc1cc(NC(=O)N(C)C2CCN(c3ccccc3F)C2=O)n(C)n1 (stereo unspecified) was -1.538%.
Result for CC(C)NC(=O)Nc1ccc(CS(C)(=O)=O)cc1 was 0.6641%.
Result for CCc1ccc(C(N)c2cccc(S(C)(=O)=O)c2)cc1 (stereo unspecified) was -41.23%.
Result for CC(C)c1nc2cc(NC(=O)Cn3ccccc3=O)ccc2o1 was -17.29%.
Result for COc1ccccc1OCc1cc(C(=O)N2C[C@@H](C)O[C@@H](C)C2)n[nH]1 was 5.927%.
Result for CN(C)C(=O)CN1CCC(c2cccc(Cc3ccc(F)cc3)n2)CC1 was 17.8%.
Result for CCc1ocnc1C(=O)N1CCCC1c1noc(C(C)C)n1 (stereo unspecified) was -40.07%.
Result for COc1cccc(F)c1C(C)NC(=O)NCc1cnc(C)s1 (stereo unspecified) was -43.54%.
Result for CC(C)N1CCC(N2CCCC(C(=O)NCC3(C)COC3)C2)CC1 (stereo unspecified) was -0.2882%.
Result for CCOc1ncccc1C(=O)NC1CC(=O)N(CC(F)(F)F)C1 (stereo unspecified) was 4.74%.
Result for [H][C@@]12CN(C3CCOCC3)C[C@]1([H])N(CCc1cccc(Cl)c1)C(=O)O2 was 7.998%.
Result for Cc1nc(C(=O)N2CCc3[nH]nc(Nc4ccccc4)c3C2)co1 was -15.29%.
Result for [H][C@@]12CCN(Cc3cccc(C)n3)C[C@@]1([H])O[C@@H](C)C2 was -2.882%.
Result for CC/C=C(/C)C(=O)NCc1ccnc(OC2CCOCC2)c1 was -8.163%.
Result for C1CC(NCc2nnc(C3CC3)o2)CN(Cc2noc(C3CC3)n2)C1 (stereo unspecified) was 8.292%.
Result for CCC(CC)C(=O)NCCC(=O)N1CCN(c2ccccn2)CC1 was 15.3%.
Result for Cc1cc(C)c(CNC(=O)C2CCCN(c3cnccn3)C2)c(=O)[nH]1 (stereo unspecified) was -8.327%.
Result for CN(C)CC1CSCCCN1C(=O)c1ccc(-c2ccccc2)cc1 (stereo unspecified) was 11.05%.
Result for CS(=O)(=O)CCSCc1cccc2cccnc12 was -42.18%.
Result for COCCN1CCC(N(Cc2noc(C3CC3)n2)C(C)=O)C1 (stereo unspecified) was 3.554%.
Result for CCNc1ncc(C2CC(=O)Nc3c2cnn3Cc2ccncc2)cn1 (stereo unspecified) was 1.454%.
Result for CCCc1nc(C)c(C(=O)NS(=O)(=O)c2cccnc2)s1 was 0.885%.
Result for OC(CN1CCOCC1)c1ccc(Br)cc1 (stereo unspecified) was -0.2436%.
Result for CN1CCCC(C(=O)N2CCC(Oc3ccc(C#N)cn3)CC2)C1 (stereo unspecified) was -0.9502%.
Result for CCNC(=O)c1ccnc(CC2COc3c(cccc3OC)C2)c1 (stereo unspecified) was 4.016%.
Result for O=C(O)C(F)(F)F.[H][C@@]12OCCN(Cc3csc(C)n3)[C@@]1([H])CC[C@H]2OCC(=O)N(C)C was 4.198%.
Result for NC(=O)CC1CCN(C(=O)NCc2cccc(-n3cccn3)c2)CC1 was 17.14%.
Result for COCCC(=O)NC[C@H]1CC[C@H](C(c2ccccn2)N(C)C)CC1 (stereo partly specified) was -14.44%.
Result for CCC(=O)N1CCC(c2nc(N3CCCCC3)ncc2S(C)(=O)=O)CC1 was -5.306%.
Result for Cc1nn(C)c2c(N(C)Cc3ccco3)nc(C3CC3)nc12 was 42.57%.
Result for CCC(=O)NC(c1cccnc1)c1cc(C)ccc1C (stereo unspecified) was 6.739%.
Result for [H][C@@]12CCN(Cc3cnn(C)c3)C[C@@]1([H])O[C@H](c1nc(C)cs1)C2 was 2.2%.
Result for COCCCSc1ccc(NCc2scnc2C)cc1 was -1.772%.
Result for CCN(CC)CC[C@H]1CN(C(=O)C2CCC2)CC[C@H]1CC(=O)O was -3.526%.
Result for N#Cc1cn[nH]c1NCc1cc(Br)ccc1O was 3.056%.

The values are deposited in ChEMBL (CHEMBL3988442, “University of Dundee, Small-Polar-MMV Screening Library” (2021)).